No constants are given. Whether binding was seen depends on the method and setting. Binding seen in cells or lysates may run through a third protein. For some assays here: A result given as binding can be weak or reduced; the word gives no strength. Sequences can lack the tags named with a protein.
Assays:
Assay in all cases: split reporter
[1] = target: T1, FBS1, split-YFP fusion for BiFC (Arabidopsis thaliana) (UniProt Q8GX77)
T1 sequence: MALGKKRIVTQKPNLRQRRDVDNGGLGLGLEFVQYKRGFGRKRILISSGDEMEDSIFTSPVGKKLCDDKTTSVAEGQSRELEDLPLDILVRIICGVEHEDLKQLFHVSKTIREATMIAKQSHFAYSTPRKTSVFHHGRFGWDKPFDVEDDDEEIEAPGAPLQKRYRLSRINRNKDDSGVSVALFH

Chains of the proteins cited; added tags and fusions are not shown. Lines headed by an entry give the natural chain unless they say otherwise; changes in a name come on top.
UniProt F4JCT6: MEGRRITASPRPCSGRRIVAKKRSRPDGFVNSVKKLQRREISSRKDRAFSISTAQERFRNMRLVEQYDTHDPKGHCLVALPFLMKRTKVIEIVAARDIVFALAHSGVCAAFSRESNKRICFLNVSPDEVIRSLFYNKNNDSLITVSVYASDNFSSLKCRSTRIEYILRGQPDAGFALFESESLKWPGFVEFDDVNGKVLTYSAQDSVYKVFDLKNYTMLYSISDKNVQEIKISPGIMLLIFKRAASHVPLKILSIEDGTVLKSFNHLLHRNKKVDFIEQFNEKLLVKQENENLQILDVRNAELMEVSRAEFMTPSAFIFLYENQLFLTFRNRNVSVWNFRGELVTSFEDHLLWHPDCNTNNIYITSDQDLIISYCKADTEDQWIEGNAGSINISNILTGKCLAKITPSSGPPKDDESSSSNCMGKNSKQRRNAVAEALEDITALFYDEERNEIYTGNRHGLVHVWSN

[2] = target: T2, FBS3, split-YFP fusion for BiFC (Arabidopsis thaliana) (UniProt Q9S9T6)
T2 sequence: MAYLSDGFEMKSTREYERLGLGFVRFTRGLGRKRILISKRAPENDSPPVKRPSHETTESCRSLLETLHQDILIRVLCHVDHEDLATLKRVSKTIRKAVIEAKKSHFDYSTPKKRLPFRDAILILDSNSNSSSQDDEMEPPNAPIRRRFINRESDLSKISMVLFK

[3] = target: T3, NIGT1.1, split-YFP fusion for BiFC (Arabidopsis thaliana) (UniProt Q9FPE8)
T3 sequence: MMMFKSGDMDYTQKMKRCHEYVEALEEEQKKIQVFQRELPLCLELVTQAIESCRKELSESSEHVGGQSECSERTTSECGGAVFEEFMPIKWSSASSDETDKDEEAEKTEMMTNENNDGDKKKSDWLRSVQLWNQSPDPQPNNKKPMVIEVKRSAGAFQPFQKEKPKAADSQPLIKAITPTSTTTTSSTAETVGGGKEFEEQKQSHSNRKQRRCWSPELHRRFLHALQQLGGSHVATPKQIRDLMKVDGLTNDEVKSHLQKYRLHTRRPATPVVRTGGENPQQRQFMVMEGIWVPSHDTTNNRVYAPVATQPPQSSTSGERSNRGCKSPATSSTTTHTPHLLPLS

[4] = target: T4, FBS4, split-YFP fusion for BiFC (Arabidopsis thaliana) (UniProt Q5XF11)
T4 sequence: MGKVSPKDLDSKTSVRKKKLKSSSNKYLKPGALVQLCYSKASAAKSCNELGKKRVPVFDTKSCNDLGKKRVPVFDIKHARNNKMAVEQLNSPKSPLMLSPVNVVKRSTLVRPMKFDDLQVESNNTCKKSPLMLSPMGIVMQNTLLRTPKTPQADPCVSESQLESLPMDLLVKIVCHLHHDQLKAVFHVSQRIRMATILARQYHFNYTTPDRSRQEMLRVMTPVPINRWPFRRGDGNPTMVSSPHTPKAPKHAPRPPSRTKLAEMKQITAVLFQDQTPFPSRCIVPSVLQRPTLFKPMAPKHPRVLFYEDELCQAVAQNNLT

[5] = target: T5, FBS2, split-YFP fusion for BiFC (Arabidopsis thaliana) (UniProt O65416)
T5 sequence: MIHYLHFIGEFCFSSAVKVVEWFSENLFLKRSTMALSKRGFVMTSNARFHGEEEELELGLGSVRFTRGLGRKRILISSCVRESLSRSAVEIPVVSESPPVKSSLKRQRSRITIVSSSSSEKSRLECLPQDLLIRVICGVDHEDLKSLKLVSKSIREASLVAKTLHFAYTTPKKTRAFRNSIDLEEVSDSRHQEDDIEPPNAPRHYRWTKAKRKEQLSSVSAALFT

For “FBIP2, split-YFP fusion for BiFC (Arabidopsis thaliana)”, the binding [1] was “binds”, the binding [2] was “binds” and the binding [3] was “binds”. For the same substance, the binding [4] was “binds” and the binding [5] was “no binding”.
In the case of “FBIP1, split-YFP fusion for BiFC (from UniProt F4JCT6)”, the binding [1] is reported as “binds”, the binding [2] is reported as “binds” and the binding [3] is reported as “binds”.
